Assay results as given in US9926581B2, “Fagopyritol synthase genes and uses thereof” (Cornell Research Foundation, Inc., priority 2002, dated 2018).

How the values were obtained:
[1] = system: buckwheat embryos; assay: Soluble carbohydrates in buckwheat embryos from seeds matured at 15, 22 or 30° C.; format: in vivo, Fagopyrum esculentum Moench
[2] = system: soybean explants; assay: Soybean explant feeding 3 days with 50 mM cyclitol in 1% sucrose, slow drying time course, soluble carbohydrates in axis, cotyledon, seed coat and leaf
[3] = system: soybean explants; assay: Soybean explant feeding with 50 mM free cyclitols for one week, soluble carbohydrates in mature seeds; format: in vivo, Glycine max (L.) Merrill cv. Chippewa 64; conditions: axis and cotyledon tissue of mature seeds
[4] = system: immature soybean embryos; assay: Embryo feeding experiments: cyclitols fed to immature soybean embryos, precocious maturation by slow drying, soluble carbohydrates in axis and cotyledons; format: in vivo, Glycine max (L.) Merrill
[5] = 3 days transport of sucrose (1%) and D-chiro-inositol (50 mM), after 2 days slow drying, Rep 1
[6] = 3 days transport of sucrose (1%) and D-chiro-inositol (50 mM), after 2 days slow drying, Rep 2
[7] = 3 days transport of sucrose (1%) and D-chiro-inositol (50 mM), after 4 days slow drying, Rep 1
[8] = 3 days transport of sucrose (1%) and D-chiro-inositol (50 mM), after 4 days slow drying, Rep 2
[9] = 3 days transport of sucrose (1%) and D-chiro-inositol (50 mM), after 14 days slow drying, Rep 1
[10] = 3 days transport of sucrose (1%) and D-chiro-inositol (50 mM), after 14 days slow drying, Rep 2
[11] = 3 days transport of sucrose (1%) and D-chiro-inositol (50 mM), before slow drying, Rep 1
[12] = 3 days transport of sucrose (1%) and D-chiro-inositol (50 mM), before slow drying, Rep 2
[13] = 3 days transport of sucrose (1%) and D-pinitol (50 mM), after 2 days slow drying, Rep 1
[14] = 3 days transport of sucrose (1%) and D-pinitol (50 mM), after 2 days slow drying, Rep 2
[15] = 3 days transport of sucrose (1%) and D-pinitol (50 mM), after 4 days slow drying, Rep 1
[16] = 3 days transport of sucrose (1%) and D-pinitol (50 mM), after 4 days slow drying, Rep 2
[17] = 3 days transport of sucrose (1%) and D-pinitol (50 mM), after 14 days slow drying, Rep 1
[18] = 3 days transport of sucrose (1%) and D-pinitol (50 mM), after 14 days slow drying, Rep 2
[19] = 3 days transport of sucrose (1%) and D-pinitol (50 mM), before slow drying, Rep 1
[20] = 3 days transport of sucrose (1%) and D-pinitol (50 mM), before slow drying, Rep 2
[21] = 3 days transport of sucrose (1%) and myo-inositol (50 mM), after 2 days slow drying, Rep 1
[22] = 3 days transport of sucrose (1%) and myo-inositol (50 mM), after 2 days slow drying, Rep 2
[23] = 3 days transport of sucrose (1%) and myo-inositol (50 mM), after 4 days slow drying, Rep 1
[24] = 3 days transport of sucrose (1%) and myo-inositol (50 mM), after 4 days slow drying, Rep 2
[25] = 3 days transport of sucrose (1%) and myo-inositol (50 mM), after 14 days slow drying, Rep 1
[26] = 3 days transport of sucrose (1%) and myo-inositol (50 mM), after 14 days slow drying, Rep 2
[27] = 3 days transport of sucrose (1%) and myo-inositol (50 mM), before slow drying, Rep 1
[28] = 3 days transport of sucrose (1%) and myo-inositol (50 mM), before slow drying, Rep 2
[29] = 3 days transport of sucrose (1%) without cyclitols, after 2 days slow drying, Rep 1
[30] = 3 days transport of sucrose (1%) without cyclitols, after 2 days slow drying, Rep 2
[31] = 3 days transport of sucrose (1%) without cyclitols, after 4 days slow drying, Rep 1
[32] = 3 days transport of sucrose (1%) without cyclitols, after 4 days slow drying, Rep 2
[33] = 3 days transport of sucrose (1%) without cyclitols, after 14 days slow drying, Rep 1
[34] = 3 days transport of sucrose (1%) without cyclitols, after 14 days slow drying, Rep 2
[35] = 3 days transport of sucrose (1%) without cyclitols, before slow drying, Rep 1
[36] = 3 days transport of sucrose (1%) without cyclitols, before slow drying, Rep 2

For OC[C@H]1O[C@H](OC[C@H]2O[C@H](O[C@]3(CO)O[C@H](CO)[C@@H](O)[C@@H]3O)[C@H](O)[C@@H](O)[C@@H]2O)[C@H](O)[C@@H](O)[C@H]1O [Raffinose, raffinose], the “Minor soluble carbohydrates in buckwheat embryos” value (“Minor soluble carbohydrates” for short) ([1]; maturation temperature 15° C., 16 DAP) was 0 μg/embryo, the “Minor soluble carbohydrates” value ([1]; maturation temperature 15° C., 20 DAP) was 0 μg/embryo and the “Minor soluble carbohydrates” value ([1]; maturation temperature 15° C., 28 DAP) was 0 μg/embryo. The “Minor soluble carbohydrates” value ([1]; maturation temperature 15° C., 28 DAP + 2 wk 12% RH) was 0 μg/embryo, the “Minor soluble carbohydrates” value ([1]; maturation temperature 22° C., 20 DAP) was 0 μg/embryo and the “Minor soluble carbohydrates” value ([1]; maturation temperature 22° C., 28 DAP) was 0.78 ± 0.45 μg/embryo. The “Minor soluble carbohydrates” value ([1]; maturation temperature 30° C., 20 DAP) was 0.70 ± 0.12 μg/embryo, the “Minor soluble carbohydrates” value ([1]; maturation temperature 30° C., 28 DAP) was 1.21 ± 0.95 μg/embryo and the “Accumulation of soluble carbohydrates in soybean axis” value (“Accumulation … in soybean axis” below) [2, 5] was 2.57 μg/axis. The “Accumulation of soluble carbohydrates in soybean cotyledon” value [2, 5] was 21.08 μg/cotyledon, the “Accumulation of soluble carbohydrates in soybean seed coat” value [2, 5] was 0 μg/seed coat and the “Accumulation … in soybean axis” value [2, 6] was 3.37 μg/axis. The “Accumulation of soluble carbohydrates in soybean cotyledon” value [2, 6] was 15.23 μg/cotyledon, the “Accumulation of soluble carbohydrates in soybean seed coat” value [2, 6] was 0 μg/seed coat and the “Accumulation … in soybean axis” value [2, 7] was 2.61 μg/axis. For the same compound, the “Accumulation of soluble carbohydrates in soybean cotyledon” value [2, 7] was 122.16 μg/cotyledon, the “Accumulation of soluble carbohydrates in soybean seed coat” value [2, 7] was 0.36 μg/seed coat and the “Accumulation … in soybean axis” value [2, 8] was 3.24 μg/axis. The “Accumulation of soluble carbohydrates in soybean cotyledon” value [2, 8] was 124.39 μg/cotyledon, the “Accumulation of soluble carbohydrates in soybean seed coat” value [2, 8] was 0.18 μg/seed coat and the “Accumulation … in soybean axis” value [2, 9] was 6.68 μg/axis. The “Accumulation of soluble carbohydrates in soybean cotyledon” value [2, 9] was 198.46 μg/cotyledon, the “Accumulation of soluble carbohydrates in soybean seed coat” value [2, 9] was 0 μg/seed coat and the “Accumulation … in soybean axis” value [2, 10] was 5.73 μg/axis. For the same compound, the “Accumulation of soluble carbohydrates in soybean cotyledon” value [2, 10] was 211.32 μg/cotyledon, the “Accumulation of soluble carbohydrates in soybean seed coat” value [2, 10] was 10.08 μg/seed coat and the “Accumulation … in soybean axis” value [2, 11] was 0.23 μg/axis. For the same compound, the “Accumulation of soluble carbohydrates in soybean cotyledon” value [2, 11] was 7.28 μg/cotyledon, the “Accumulation … in soybean axis” value [2, 12] was 0 μg/axis and the “Accumulation of soluble carbohydrates in soybean cotyledon” value [2, 12] was 10.73 μg/cotyledon. For the same compound, the “Accumulation … in soybean axis” value [2, 13] was 6.33 μg/axis, the “Accumulation of soluble carbohydrates in soybean cotyledon” value [2, 13] was 10.85 μg/cotyledon and the “Accumulation of soluble carbohydrates in soybean seed coat” value [2, 13] was 0 μg/seed coat. The “Accumulation … in soybean axis” value [2, 14] was 3.86 μg/axis, the “Accumulation of soluble carbohydrates in soybean cotyledon” value [2, 14] was 15.22 μg/cotyledon and the “Accumulation of soluble carbohydrates in soybean seed coat” value [2, 14] was 0 μg/seed coat. The “Accumulation … in soybean axis” value [2, 15] was 7.49 μg/axis, the “Accumulation of soluble carbohydrates in soybean cotyledon” value [2, 15] was 72.18 μg/cotyledon and the “Accumulation of soluble carbohydrates in soybean seed coat” value [2, 15] was 0 μg/seed coat. For the same compound, the “Accumulation … in soybean axis” value [2, 16] was 3.46 μg/axis, the “Accumulation of soluble carbohydrates in soybean cotyledon” value [2, 16] was 187.91 μg/cotyledon and the “Accumulation of soluble carbohydrates in soybean seed coat” value [2, 16] was 0.54 μg/seed coat. For the same compound, the “Accumulation … in soybean axis” value [2, 17] was 7.60 μg/axis, the “Accumulation of soluble carbohydrates in soybean cotyledon” value [2, 17] was 77.60 μg/cotyledon and the “Accumulation of soluble carbohydrates in soybean seed coat” value [2, 17] was 0 μg/seed coat. For the same compound, the “Accumulation … in soybean axis” value [2, 18] was 11.19 μg/axis, the “Accumulation of soluble carbohydrates in soybean cotyledon” value [2, 18] was 162.90 μg/cotyledon and the “Accumulation of soluble carbohydrates in soybean seed coat” value [2, 18] was 18.53 μg/seed coat. The “Accumulation … in soybean axis” value [2, 19] was 0 μg/axis, the “Accumulation of soluble carbohydrates in soybean cotyledon” value [2, 19] was 0 μg/cotyledon and the “Accumulation … in soybean axis” value [2, 20] was 0 μg/axis. The “Accumulation of soluble carbohydrates in soybean cotyledon” value [2, 20] was 4.09 μg/cotyledon, the “Accumulation … in soybean axis” value [2, 21] was 5.44 μg/axis and the “Accumulation of soluble carbohydrates in soybean cotyledons” value (“Accumulation … in soybean cotyledons” below) [2, 21] was 29.20 μg/cotyledon. For the same compound, the “Accumulation of soluble carbohydrates in soybean seed coats” value (from here on “Accumulation … in soybean seed coats”) [2, 21] was 1.58 μg/seed coat, the “Accumulation … in soybean axis” value [2, 22] was 1.83 μg/axis and the “Accumulation … in soybean cotyledons” value [2, 22] was 89.65 μg/cotyledon. For the same compound, the “Accumulation … in soybean seed coats” value [2, 22] was 0 μg/seed coat, the “Accumulation … in soybean axis” value [2, 23] was 6.37 μg/axis and the “Accumulation … in soybean cotyledons” value [2, 23] was 122.10 μg/cotyledon. For the same compound, the “Accumulation … in soybean axis” value [2, 24] was 7.57 μg/axis, the “Accumulation … in soybean cotyledons” value [2, 24] was 351.33 μg/cotyledon and the “Accumulation … in soybean seed coats” value [2, 24] was 0 μg/seed coat. For the same compound, the “Accumulation … in soybean axis” value [2, 25] was 14.51 μg/axis, the “Accumulation … in soybean cotyledons” value [2, 25] was 165.12 μg/cotyledon and the “Accumulation … in soybean seed coats” value [2, 25] was 7.44 μg/seed coat. For the same compound, the “Accumulation … in soybean axis” value [2, 26] was 11.98 μg/axis, the “Accumulation … in soybean cotyledons” value [2, 26] was 218.44 μg/cotyledon and the “Accumulation … in soybean seed coats” value [2, 26] was 24.24 μg/seed coat. For the same compound, the “Accumulation … in soybean axis” value [2, 27] was “Tr”, the “Accumulation … in soybean cotyledons” value [2, 27] was 0 μg/cotyledon and the “Accumulation … in soybean axis” value [2, 28] was 0 μg/axis. For the same compound, the “Accumulation … in soybean cotyledons” value [2, 28] was 0 μg/cotyledon, the “Accumulation … in soybean axis” value [2, 29] was 5.83 μg/axis and the “Accumulation of soluble carbohydrates in soybean cotyledon” value [2, 29] was 34.55 μg/cotyledon. The “Accumulation … in soybean seed coats” value [2, 29] was 3.50 μg/seed coat, the “Accumulation … in soybean axis” value [2, 30] was 8.95 μg/axis and the “Accumulation of soluble carbohydrates in soybean cotyledon” value [2, 30] was 85.98 μg/cotyledon. The “Accumulation … in soybean seed coats” value [2, 30] was 5.06 μg/seed coat, the “Accumulation … in soybean axis” value [2, 31] was 8.58 μg/axis and the “Accumulation of soluble carbohydrates in soybean cotyledon” value [2, 31] was 200.22 μg/cotyledon. For the same compound, the “Accumulation … in soybean seed coats” value [2, 31] was 1.08 μg/seed coat, the “Accumulation … in soybean axis” value [2, 32] was 12.44 μg/axis and the “Accumulation of soluble carbohydrates in soybean cotyledon” value [2, 32] was 312.69 μg/cotyledon. For the same compound, the “Accumulation … in soybean seed coats” value [2, 32] was 0 μg/seed coat, the “Accumulation … in soybean axis” value [2, 33] was 13.14 μg/axis and the “Accumulation of soluble carbohydrates in soybean cotyledon” value [2, 33] was 273.49 μg/cotyledon. The “Accumulation … in soybean seed coats” value [2, 33] was 0 μg/seed coat, the “Accumulation … in soybean axis” value [2, 34] was 8.02 μg/axis and the “Accumulation of soluble carbohydrates in soybean cotyledon” value [2, 34] was 444.34 μg/cotyledon. The “Accumulation … in soybean seed coats” value [2, 34] was 8.44 μg/seed coat, the “Accumulation … in soybean axis” value [2, 35] was 0.62 μg/axis and the “Accumulation of soluble carbohydrates in soybean cotyledon” value [2, 35] was 4.97 μg/cotyledon. The “Accumulation … in soybean axis” value [2, 36] was 2.65 μg/axis, the “Accumulation of soluble carbohydrates in soybean cotyledon” value [2, 36] was 2.41 μg/cotyledon and the “change after feeding myo-inositol” value ([2]; seed coat of dry seeds (14 days slow drying)) was “doubled”. The “change in concentration after feeding 50 mM myo-inositol to explants” value [3] was “No significant changes”, the “change in concentration after feeding myo-inositol” value ([4]; axis and cotyledon tissues, myo-inositol up to 50 mM, after precocious maturation) was “little change” and the “increase in concentration after feeding D-chiro-inositol” value ([4]; axis and cotyledons, concentration series, 14 days precocious maturation) was “did not increase”.
